Data reported in the supplement of paper PMC6078165.
Values are relative to the signal before dosing, not to a vehicle control; the signal also falls without drug.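 Fibroblast labels name human fibroblasts: mostly primary ones from tissues such as uterus (C12385, HUF), lung (H6013), bone (Hs27A), adrenal (HADF) and skin (WS1), plus mammary HMF and breast cancer-associated Hs343T. The cancer cells are basal-like or mesenchymal-like triple-negative breast cancer lines. The paper calls a changed response a hit when it shifts by more than 3x the replicate standard deviation. The tissue of the other fibroblasts is not given here.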

System: MDAMB436
Experiment: relative JC-1 red fluorescence (viability) vs pre-drug, coculture with fibroblast (fraction); higher = more viable cancer cells
Experimental: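 JC-1 labelled TNBC cells cocultured 1:1 (1,500 cells each) with CellTrace Violet stained primary or stromal fibroblasts in 384-well plates in FluoroBrite medium, treated with one of 42 anticancer drugs at 0.1, 1, 10 or 100 uM. JC-1 red fluorescence (mitochondrial integrity in cancer cells only) was read by plate reader every 8 h for 72 h. Values are normalised to each well's pre-drug value. The stock of one drug was tenfold lower, so its dose labels may be too high.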

CC(C)C[C@H](NC(=O)[C@@H](COC(C)(C)C)NC(=O)[C@H](Cc1ccc(O)cc1)NC(=O)[C@H](CO)NC(=O)[C@H](Cc1c[nH]c2ccccc12)NC(=O)[C@H](Cc1cnc[nH]1)NC(=O)[C@@H]1CCC(=O)N1)C(=O)N[C@@H](CCCNC(=N)N)C(=O)N1CCC[C@H]1C(=O)NNC(N)=O [Goserelin]
relative JC-1 red fluorescence
Conditions	8 h	16 h	24 h	32 h	40 h	48 h	56 h	64 h	72 h
0.1 µM, coculture fibroblast: C12385	0.7743	0.666	0.63	0.543	0.491	0.466	0.449	0.433	0.43
0.1 µM, coculture fibroblast: H6013	0.767	0.754	0.746	0.732	0.712	0.737	0.703	0.685	0.636
0.1 µM, coculture fibroblast: H6019	0.697	0.6418	0.59724	0.515	0.474	0.456	0.43	0.409	0.393
0.1 µM, coculture fibroblast: H6076	0.737	0.661	0.6381	0.5933	0.5937	0.575	0.5879	0.577	0.575
0.1 µM, coculture fibroblast: H6231	0.753	0.662	0.684	0.599	0.584	0.555	0.536	0.505	0.484
0.1 µM, coculture fibroblast: HADF	0.809	0.701	0.676	0.64	0.621	0.643	0.591	0.59	0.553
0.1 µM, coculture fibroblast: HCFa	0.7723	0.737	0.709	0.683	0.67	0.685	0.629	0.619	0.565
0.1 µM, coculture fibroblast: HCPF	0.7154	0.6585	0.661	0.599	0.593	0.562	0.545	0.52	0.509
0.1 µM, coculture fibroblast: HHSteC	0.8166	0.747	0.725	0.6825	0.6771	0.6834	0.62582	0.602	0.545
0.1 µM, coculture fibroblast: HMF	0.732	0.6695	0.645	0.598	0.585	0.546	0.546	0.516	0.512
0.1 µM, coculture fibroblast: HPFa	0.859	0.765	0.727	0.683	0.668	0.675	0.591	0.557	0.48
0.1 µM, coculture fibroblast: HUF	0.829	0.7	0.661	0.582	0.529	0.505	0.475	0.463	0.456
0.1 µM, coculture fibroblast: Hs5	0.756	0.6884	0.662	0.603	0.586	0.545	0.556	0.516	0.514
0.1 µM, coculture fibroblast: Hs27A	0.892	0.809	0.801	0.801	0.777	0.827	0.735	0.71	0.631
0.1 µM, coculture fibroblast: Hs343T	0.7192	0.6488	0.6126	0.568	0.5461	0.5119	0.50787	0.4999	0.4917
0.1 µM, coculture fibroblast: WS1	0.739	0.68	0.6298	0.543	0.493	0.467	0.444	0.416	0.404
1 µM, coculture fibroblast: C12385	0.806	0.711	0.652	0.584	0.539	0.511	0.488	0.471	0.46
1 µM, coculture fibroblast: H6013	0.86	0.789	0.785	0.788	0.778	0.805	0.769	0.747	0.699
1 µM, coculture fibroblast: H6019	0.7506	0.6639	0.596	0.53	0.486	0.471	0.44	0.4113	0.374
1 µM, coculture fibroblast: H6076	0.755	0.648	0.67	0.647	0.637	0.622	0.627	0.625	0.621
1 µM, coculture fibroblast: H6231	0.747	0.654	0.625	0.575	0.542	0.519	0.509	0.483	0.457
1 µM, coculture fibroblast: HADF	0.833	0.752	0.704	0.677	0.662	0.669	0.625	0.618	0.58
1 µM, coculture fibroblast: HCFa	0.834	0.775	0.714	0.69	0.666	0.676	0.611	0.597	0.545
1 µM, coculture fibroblast: HCPF	0.771	0.682	0.634	0.588	0.563	0.528	0.503	0.491	0.467
1 µM, coculture fibroblast: HHSteC	0.811	0.734	0.693	0.657	0.644	0.652	0.595	0.575	0.516
1 µM, coculture fibroblast: HMF	0.775	0.683	0.647	0.619	0.6	0.573	0.57	0.567	0.563
1 µM, coculture fibroblast: HPFa	0.8851	0.82815	0.7778	0.737	0.72	0.729	0.644	0.614	0.539
1 µM, coculture fibroblast: HUF	0.843	0.726	0.694	0.613	0.556	0.53	0.5	0.482	0.475
1 µM, coculture fibroblast: Hs5	0.794	0.705	0.6721	0.628	0.611	0.575	0.582	0.548	0.535
1 µM, coculture fibroblast: Hs27A	0.882	0.831	0.803	0.827	0.796	0.867	0.788	0.785	0.71
1 µM, coculture fibroblast: Hs343T	0.829	0.755	0.682	0.644	0.611	0.581	0.56	0.536	0.524
1 µM, coculture fibroblast: WS1	0.7836	0.674	0.637	0.564	0.519	0.492	0.468	0.436	0.418
